# Some entries share one result that the patent states for a list of compounds.
# System: commercial enzyme mixtures (CTec2+HTec2)
# Test: Effect of acid-induced pH adjustment of 5% [Ch][Lys] solution on enzymatic hydrolysis of MCC
# Assay type: biochemical
# Conditions: pH adjusted with the named acid
# Protocol: To enable a one-pot process, the pH mis-match must be adjusted to lower the pH of pretreatment slurry to a range suitable to enzymes and microbes. We tested a series of mineral and organic acids such as hydrochloric acid, phosphoric acid, sulfuric acid, acetic acid, citric acid, lactic acid, formic acid for the pH adjustment of 5% [Ch][Lys] solution.
# In another set of pretreatment, switchgrass (100 mg, dry weight) was mixed with 5, 10, and 20% [Ch][Lys]-water solutions at a 10% biomass loading in a 15 ml capped glass pressure tube and pretreated at 140° C. for 1 h. After pretreatment, CTec2+HTec2 (9:1 v/v) mixture was directly added to the pretreatment slurry at 10 mg EP per g starting biomass for saccharification at the same conditions as stated above. In addition, microcrystalline cellulose (MCC) was hydrolyzed by 30 mg/g starting biomass for CTec2+HTec2, spiked with 0-30% IL.
smiles,measurement,value
CC(O)C(=O)O (stereo not shown) [lactic acid],relative activities of enzymes on MCC,< 50%

# Reference: patent US11976311B2, “Method of adjusting the pH of a pretreatment solution using carbon dioxide useful for integrating saccharification and fermentation of a biomass” (National Technology & Engineering Solutions of Sandia, LLC, priority 2014, dated 2024)
